Measurements as given in PubChem BioAssay AID2685 (National Center for Advancing Translational Sciences (NCATS), 2010).
This is one part of the list. The main result of the screen is listed elsewhere. These columns were measured beside it and carry no call. The list favours compounds with an active or inconclusive main result. The note in brackets gives the kind of curve behind each potency; many fits are weak.

Experiment: qHTS Assay for Lipid Storage Modulators in Drosophila S3 Cells;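 for cell number change: cells counted by Cell Tracker Red CMTPX staining in the red channel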
Conditions: BODIPY lipid droplet fluorescence, 18-24 h; for cell number change: measured here: cell count max response, cells fed with added oleic acid
Summary of the method: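 Laser-scanning cytometry quantifies lipid droplet accumulation (500–530 nm total intensity; droplet/cell object ratio) in oleic acid-fed (400 uM added) Drosophila S3 cells treated with a concentration series. 20 uM Triacsin C defined 100% inhibition.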

[1] = measured here: lipid fluorescence (Fed channel) AC50, cells fed with added oleic acid
[2] = measured here: cell number channel AC50, cells fed with added oleic acid

| SMILES | cell number change [%] | AC50 [1] | AC50 [2] |
| --- | --- | --- | --- |
| O=C(CCCl)Nc1nnc(SCC(=O)NC2CCCC2)s1 | 16.7 | 1.3 µM [falling, partial curve] | – |
| COc1ccc(/C=C/C(=O)NC(=S)Nc2ccc(C(=O)O)cc2)cc1 | -10.1 | – | – |
| CCCCC1(C)OC(=O)C(=Cc2ccc(N(C)C)cc2)C(=O)O1 (stereo not drawn) | 0.486 | 6.51 µM [rising, single point] | – |
| CC(C)(CNC(=O)Cc1ccc(Cl)cc1Cl)N1CCOCC1 | 10.4 | 23.1 µM [rising, partial curve, poor fit] | – |
| CCOC(=O)c1ccc(NC(=S)N2CCC(O)CC2)cc1 | 22.2 | – | – |
| O=C(CCN1C(=O)/C(=C/c2ccccc2)SC1=S)NC1CCS(=O)(=O)C1 (stereo not drawn) | 2.36 | – | – |
| COc1ccc(S(=O)(=O)N2CCC(C(=O)NCCC3=CCCCC3)CC2)cc1OC | -11.3 | 0.291 µM [falling, full curve] | 0.0651 µM [falling, full curve] |
| CC1(C)C(N(O)C(=O)Nc2ccccc2)N(c2cccc(Cl)c2)C(=O)N1O (stereo not drawn) | 3.16 | 5.8 µM [falling, single point] | – |
| N#CCCN1CCN(Cn2c3ccccc3c3ccccc32)CC1 | 7.92 | 29.1 µM [rising, single point] | – |
| Cc1coc(C)c1C(=O)CC1(O)C(=O)N(Cc2ccccc2)c2ccccc21 (stereo not drawn) | 64.3 | 29.1 µM [falling, single point] | 9.2 µM [rising, partial curve] |
| COc1ccc2c(c1)C(=O)[C@@H](O)[C@H](c1ccc(OC)c(Br)c1)O2 | 33.9 | 16.4 µM [rising, partial curve] | 16.4 µM [rising, single point] |
| O=C(c1ccc(-c2cccc(Cl)c2Cl)o1)N1CCOCC1 | -25.1 | 0.0731 µM [falling, full curve, poor fit] | 0.0651 µM [falling, full curve, poor fit] |
| COc1cc(NC(=O)C2=CC(c3cccs3)=NS(=O)(=O)N2C)cc(OC)c1OC | -30.5 | – | 0.164 µM [falling, full curve, poor fit] |
| Cc1cc(C)cc(C(=O)OCC(=O)NC(=O)NC2CCCC2)c1 | -43.2 | – | 23.1 µM [falling, single point] |
| O=C(Cc1ccsc1)NCc1ccccc1F | 21.1 | 29.1 µM [rising, single point] | – |
| O=C(CSc1n[nH]c(-c2cccnc2)n1)Nc1ccccc1C(F)(F)F | 20.6 | 29.1 µM [rising, single point] | – |
| CC(C)CN(C(=O)CSc1nnnn1-c1ccccc1)c1c(N)n(CC(C)C)c(=O)[nH]c1=O | – | – | 1.64 µM [rising, single point] |
| Cc1ccc(-n2ncc3ccccc3c2=O)cc1Cl | – | – | 3.66 µM [rising, single point] |
| CNc1ccccc1C(C)(C)c1cc(-c2cc(C)cc(C)c2)no1 | -9.86 | 29.1 µM [falling, single point] | – |
| CCCc1nc2sc3ccccc3c(=O)c2c(=O)n1Cc1ccco1 | -18.2 | 0.517 µM [falling, full curve] | – |

| SMILES | cell number change [%] | AC50 [1] | AC50 [2] |
| --- | --- | --- | --- |
| S=c1[nH]nc(COc2ccccc2)n1C1CCCCC1 | – | – | 0.731 µM [rising, single point] |
| Cc1cccc(NC(=S)N(CCc2nc3cc(C)c(C)cc3[nH]2)Cc2cccnc2)c1 | -20.3 | – | 0.146 µM [falling, full curve, poor fit] |
| CC(=O)Nc1cccc(NC(=O)CSc2nnc3ccc(-c4ccncc4)nn23)c1 | -14 | – | – |
| Cc1ccc(NC(=O)C(=O)NCCN2CCN(S(C)(=O)=O)CC2)cc1 | 33.6 | 0.082 µM [falling, full curve, poor fit] | – |
| C/C(=C\c1ccccc1)C(=O)N1CCN(Cc2ccc3c(c2)OCO3)CC1 | 6.04 | 29.1 µM [falling, single point] | – |
| O=c1cc(CN2CCN(c3ccc(F)cc3)CC2)nc2sccn12 | 130 | – | – |
| Cc1cc(=O)n2nc(N3CCC(C(=O)NCC(C)c4ccccc4)CC3)sc2n1 (stereo not drawn) | 11.5 | – | – |
| COc1ccc(CN2C(=O)c3cccnc3C2=O)cc1S(=O)(=O)NC1CCCCC1 | -39.4 | – | 29.1 µM [falling, single point] |
| Cc1ccc(C(=O)NC2CCCN(c3ccc(C(F)(F)F)cn3)C2)cn1 (stereo not drawn) | 30.8 | 12.6 µM [rising, partial curve] | 20 µM [rising, partial curve, poor fit] |
| CCC(c1c(C)[nH]oc1=O)c1c(C)[nH]oc1=O | -15.6 | 0.92 µM [falling, full curve, poor fit] | – |
| CCC(C)N1C(=O)c2ccccc2C1C(=O)NC1CCCCCC1 (stereo not drawn) | -55.4 | 10.3 µM [falling, partial curve] | 10.3 µM [falling, partial curve, poor fit] |
| Cc1cccn2c(=O)c3cc(C(=O)N4CCOCC4)n(C)c3nc12 | 1.3 | 0.116 µM [falling, full curve, poor fit] | – |
| Cc1ccc(CCC(=O)Nc2ccc(C#N)cc2)o1 | 1.77 | 6.51 µM [rising, single point] | – |
| C=CCC1=C/C(=C\c2c(N)n3nc(CC(=O)N4CCCC4)sc3nc2=O)C=C(OC)C1=O | -60.4 | 5.17 µM [falling, single point] | 29.1 µM [falling, partial curve, poor fit] |
| O=C(CN1C(=O)c2cccnc2Oc2ccc(Cl)cc21)NC1CCCCCC1 | 1.49 | 0.092 µM [falling, full curve] | 0.0326 µM [falling, full curve, poor fit] |
| CCn1c(SCC(=O)N=Nc2c(O)[nH]c3ccccc23)nnc1-c1ccc(C(C)(C)C)cc1 | 1.81 | – | – |
| CCOc1ccc(NS(=O)(=O)c2ccc(C(=O)NC3CCN(Cc4ccccc4)CC3)cc2)cc1 | 27.3 | 13 µM [rising, partial curve] | – |
| CCCS(=O)(=O)Nc1cccc(-c2nc3cccnc3s2)c1 | 21.5 | 25.9 µM [rising, single point] | – |
| COc1c(Cl)cc(C(=O)Nc2ccc(Cl)cn2)cc1Cl | -61.5 | – | 7.31 µM [falling, partial curve, poor fit] |
| CCC(=O)Nc1ccc(NC(=O)c2ccccc2)nc1 | -28.1 | 6.51 µM [falling, single point] | – |

Grouped by structure, those above containing a cyano group.

| SMILES | cell number change [%] | AC50 [1] | AC50 [2] |
| --- | --- | --- | --- |
| N#CCCN1CCN(Cn2c3ccccc3c3ccccc32)CC1 | 7.92 | 29.1 µM [rising, single point] | – |
| Cc1ccc(CCC(=O)Nc2ccc(C#N)cc2)o1 | 1.77 | 6.51 µM [rising, single point] | – |

Carrying on.

| SMILES | cell number change [%] | AC50 [1] | AC50 [2] |
| --- | --- | --- | --- |
| CN(C)S(=O)(=O)c1ccc(Cl)c(NC(=O)COC(=O)CNC(=O)c2ccco2)c1 | 8.25 | – | – |
| COc1ccccc1CCN=C(N)NS(=O)(=O)c1ccc(F)cc1 | 0.875 | – | 6.51 µM [rising, single point] |
| C=CCNC(=O)/C(=C\c1ccc(Br)cc1)NC(=O)c1ccccc1OC | 44.9 | – | 29.1 µM [rising, single point] |
| O=C(NC1CC2CCC(C1)N2Cc1nnnn1Cc1ccco1)NC12CC3CC(CC(C3)C1)C2 (stereo not drawn) | -13.6 | – | 0.651 µM [falling, full curve, poor fit] |
| CCCc1nc2oc3c(NCC(C)O)ncnc3c2c2c1CCCC2 (stereo not drawn) | 6.4 | 6.51 µM [rising, partial curve] | – |
| O=C(CSc1ncnc2c1cnn2-c1cccc(Cl)c1)NCC1CCCO1 (stereo not drawn) | -12.1 | 15.8 µM [falling, single point] | – |
| O=C(COc1ccc([N+](=O)[O-])cc1)Nc1ccc(C(=O)NCc2cccnc2)cc1 | 4.31 | 0.326 µM [rising, full curve] | – |
| O=C(CCN1CCN(c2ccccc2)CC1)NNC(=O)Cc1ccccc1Cl | 24.6 | 0.651 µM [rising, partial curve, poor fit] | – |
| C/C(Cn1cnc([N+](=O)[O-])n1)=N/NC(=O)COc1ccccc1Cl | 92.3 | 6.51 µM [rising, partial curve] | 29.1 µM [rising, single point] |
| CCN(CC)S(=O)(=O)c1ccc(C(=O)NNc2nc(-c3ccccc3)c3cc(Br)ccc3n2)cc1 | 8.16 | – | – |
| N#Cc1c(/N=C/c2ccc(-c3ccccc3C(=O)O)o2)sc2c1CCCC2 | 22.1 | 13 µM [rising, partial curve, poor fit] | – |
| CCN(CC)C(=S)SC1CCCCN(C(=O)c2ccc(F)cc2)C1=O (stereo not drawn) | 37.8 | 32.6 µM [rising, partial curve, poor fit] | 29.1 µM [rising, single point] |
| COc1ccc(C(=O)N(CCc2ccccc2)Cc2ccccc2)cc1S(=O)(=O)N1CCOCC1 | -26.2 | 2.91 µM [falling, partial curve, poor fit] | – |
| CSc1cccc(NC(=O)CCCNC(=O)c2ccc(Cl)cc2)c1 | 4.7 | – | – |
| Cc1nn(CC(=O)N2CCCc3ccccc32)c(C)c1[N+](=O)[O-] | 5.33 | 23.1 µM [rising, single point] | – |
| O=[N+]([O-])c1ccc(COc2ccc(CNc3ccccc3)cc2)cc1 | -35.9 | 0.731 µM [falling, single point] | 32.6 µM [falling, partial curve, poor fit] |
| O=C(CSc1nnc(-c2ccccc2)n1-c1ccccc1)NCc1ccco1 | 24.8 | – | – |
| COc1ccc(S(=O)(=O)N2CCC(C(=O)NCc3ccncc3)CC2)cc1OC | 6.84 | 23.1 µM [rising, single point] | – |
| Clc1ccc2nc(N3CCCCC3)sc2c1 | -23.5 | 18.4 µM [falling, single point] | – |
| O=S(=O)(NCCc1ccccn1)c1ccc(OC(F)(F)F)cc1 | 51.9 | 3.26 µM [rising, partial curve, poor fit] | 10.3 µM [rising, partial curve, poor fit] |
